From paper doi:10.1101/785527
Results are given in words; binding and its absence hold for the method and conditions named. In cells and extracts the contact can be indirect. Some binding calls cover weakened binding; strength is not graded here.

Chains of the proteins cited; added tags and fusions are not shown.
UniProt P25106: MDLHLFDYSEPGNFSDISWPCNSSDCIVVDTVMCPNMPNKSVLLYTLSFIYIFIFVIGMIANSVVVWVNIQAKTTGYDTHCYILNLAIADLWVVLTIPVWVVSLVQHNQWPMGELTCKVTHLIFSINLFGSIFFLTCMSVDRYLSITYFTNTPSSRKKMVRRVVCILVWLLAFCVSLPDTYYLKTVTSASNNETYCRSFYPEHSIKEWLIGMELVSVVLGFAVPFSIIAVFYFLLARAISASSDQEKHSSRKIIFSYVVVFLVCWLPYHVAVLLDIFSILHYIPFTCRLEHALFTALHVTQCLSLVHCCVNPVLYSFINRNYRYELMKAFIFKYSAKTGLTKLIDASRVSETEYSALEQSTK
UniProt P29067: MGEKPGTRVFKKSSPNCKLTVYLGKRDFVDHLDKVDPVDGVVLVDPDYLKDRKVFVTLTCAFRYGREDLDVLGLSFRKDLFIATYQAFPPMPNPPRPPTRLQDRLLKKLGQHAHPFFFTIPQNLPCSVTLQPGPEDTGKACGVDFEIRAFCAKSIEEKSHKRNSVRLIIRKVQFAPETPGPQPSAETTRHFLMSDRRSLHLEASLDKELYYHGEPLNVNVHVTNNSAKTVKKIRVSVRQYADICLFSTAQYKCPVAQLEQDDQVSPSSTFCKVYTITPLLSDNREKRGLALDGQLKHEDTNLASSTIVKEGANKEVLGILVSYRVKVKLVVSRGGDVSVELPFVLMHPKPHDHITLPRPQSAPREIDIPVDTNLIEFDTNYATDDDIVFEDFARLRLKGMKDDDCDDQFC

Target: CXCR7 (atypical chemokine receptor 3, ACKR3), wild type, FLAG-tagged (human) (UniProt P25106)
Assay: co-IP

binding: binds
Substance: β-arrestin 2 expressed in HEK-293 cells (from UniProt P29067 1-410)
